The target in series [1] is human serum albumin (HSA) (Homo sapiens) (UniProt P02768). Nature of the series: SPR. The note with it: 5' thiol (immobilized on gold); SPR imaging, aptamer immobilized on gold chip; HSA 100 and 250 nM; ka 2.19E5, kd 1.29E-3; single-stranded DNA.
Series [2] has as its system immunoglobulin G (IgG), pooled. The experiment in a line: SPR. Particulars: 5' thiol (immobilized on gold); counter-target; 250 nM IgG; aptamer described as selected to bind HSA and not IgG; single-stranded DNA.
Series [3] relates to immunoglobulin G (IgG), pooled. The experiment in a line: SELEX. Particulars: FRELEX enrichment in IgG selection versus buffer (counter-target), fold minus one 0.338036; single-stranded DNA.

Our source for the Kd, binding result and binding signal values is US20250116035.

The exact form of at least one protein or probe is not confirmed. For part of these data: Negatives hold for the conditions tested. For part of these data: Whether high values mean tight binding is not given here for every scale.

Take “CCAGATACAGACCAGAGGCGGGAATAAGAACCATCGGCGCCAACACCACATTCATTCAGATCCAGTAGACAGC [fBHSA-6]”: in series [1], the dissociation constant Kd came to 5.89 nM. In addition, the binding result in series [2] is given as “no binding”.

Sequence “CCAGATACAGACTTGAGGTTTGAATACGAACCATCGGCGCCAACATTACATTCCCACAGATCCAGTAGACAGC [fBHSA-1 (top HSA sequence)]” displayed a binding signal in series [3] of 5.69 Z score.

A word on the Kd: it is the free concentration of one partner at which half of the binding sites on the other are occupied at equilibrium, for simple one-to-one binding. Higher therefore signals a looser complex.
